PubChem BioAssay AID1053208 | Peter MacCallum Cancer Centre | 2014
In all, the deposit lists about 17,000 reagents; this is a part drawn at random. Of all reagents, 788 (4.7%) are marked active. 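Calls rest on z-score classes alone; an extra cut-off of viability at most 70% of control was not applied to them.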 A number with no mark means an inactive call. Not all columns of the deposit are shown.

Purpose: 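Genes whose silencing cuts survival of bone tumour cells only with doxorubicin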 (primary screen)
System: mouse osteosarcoma cells, early-passage culture from an engineered mouse model of fibroblastic bone tumour
Knock-down reagent: siRNA pool against mouse genes, 40 nM
Time to read-out: about 120 h (48 h before drug, then 72 h with drug)
Challenge: doxorubicin 100 nM for 72 h, roughly 30-40% inhibitory dose
Measurement: 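Luminescent ATP signal taken as viability with or without 100 nM doxorubicin for 72 h; mean of two wells set against non-targeting siRNA and turned into robust z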
Scale: viability z-score with doxorubicin: higher = more viable cells under doxorubicin; viability z-score without drug: higher = more viable cells with knock-down alone
Hit rule: 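Called active if knock-down leaves viability unchanged without drug (z within -2 to 2) but lowers it with doxorubicin (z at or under -2)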

| gene symbol | combined z-score class | viability z-score with doxorubicin | viability z-score without drug |
| --- | --- | --- | --- |
| Inpp5e (inositol polyphosphate-5-phosphatase E) | no change with or without drug | 0.22 | -1.35 |
| Sez6 (seizure related gene 6) | no change with or without drug | 1.8 | 0.51 |
| Dync1i2 (dynein cytoplasmic 1 intermediate chain 2) | no change with or without drug | 1.8 | 0.17 |
| Rprm (reprimo, TP53 dependent G2 arrest mediator candidate) | no change with or without drug | 1.12 | -0.17 |
| Agbl2 (ATP/GTP binding protein-like 2) | no change with or without drug | 0.34 | -0.51 |
| Gbx1 (gastrulation brain homeobox 1) | no change with or without drug | 0.22 | 0 |
| Rtl8a (retrotransposon Gag like 8A) | no change with or without drug | -1.57 | 0 |
| Gpr45 (G protein-coupled receptor 45) | no change with or without drug | -0.11 | 1.18 |
| Hemk1 (HemK methyltransferase family member 1) | no change with or without drug | -0.22 | 1.52 |
| Amer1 (APC membrane recruitment 1) | no change with or without drug | 0.22 | 0.34 |
| Cln6 (ceroid-lipofuscinosis, neuronal 6) | no change with or without drug | 0.22 | -1.18 |
| Pnrc2 (proline-rich nuclear receptor coactivator 2) | high cell count with doxorubicin only | 2.02 | 0.17 |
| Klra15 (killer cell lectin-like receptor, subfamily A, member 15) | no change with or without drug | 0.45 | 1.18 |
| A430057O09 | no change with or without drug | 0.22 | 0.17 |
| Cfl2 (cofilin 2, muscle) | no change with or without drug | -1.35 | -1.01 |
| Nek9 (NIMA (never in mitosis gene a)-related expressed kinase 9) | no change with or without drug | 0 | 1.52 |
| Spmip8 (sperm microtubule inner protein 8) | no change with or without drug | -1.01 | 0.84 |
| Or8u9 (olfactory receptor family 8 subfamily U member 9) | no change with or without drug | -1.12 | -1.85 |
| Dpm2 (dolichyl-phosphate mannosyltransferase subunit 2, regulatory) | no change with or without drug | 0.45 | 1.18 |
| Myo1e (myosin IE) | no change with or without drug | 0.67 | 1.35 |
| Egr3 (early growth response 3) | no change with or without drug | -0.9 | 0.84 |
| Pnpla2 (patatin-like phospholipase domain containing 2) | no change with or without drug | 0.34 | 0.84 |
| Rell2 (RELT-like 2) | no change with or without drug | -0.34 | -0.51 |
| Dnajb7 (DnaJ heat shock protein family (Hsp40) member B7) | no change with or without drug | -0.45 | 0.67 |
| Chst14 (carbohydrate sulfotransferase 14) | no change with or without drug | -0.9 | 1.01 |
| Wwc2 (WW, C2 and coiled-coil domain containing 2) | no change with or without drug | 0.9 | -0.84 |
| Kcnn3 | no change with or without drug | 0 | -0.84 |
| Gda (guanine deaminase) | no change with or without drug | 0.34 | 1.85 |
| Nedd4 | no change with or without drug | 0 | -0.84 |
| Prkacb (protein kinase, cAMP dependent, catalytic, beta) | no change with or without drug | 0.79 | 0.34 |
| Il22 (interleukin 22) | no change with or without drug | -1.8 | -1.85 |
| Capn5 (calpain 5) | no change with or without drug | -0.22 | 0.67 |
| Plod1 (procollagen-lysine, 2-oxoglutarate 5-dioxygenase 1) | no change with or without drug | 0.45 | 0.51 |
| Tnnc2 (troponin C2, fast) | no change with or without drug | -0.9 | 0.67 |
| Kdelr3 | no change with or without drug | -0.22 | -0.17 |
| Aspn (asporin) | no change with or without drug | -1.69 | -0.84 |
| Rnf128 (ring finger protein 128) | low cell count with doxorubicin only (active) | -2.59 | -0.34 |
| Hesx1 (homeobox gene expressed in ES cells) | no change with or without drug | 0.56 | 1.18 |
| Or4d11 (olfactory receptor family 4 subfamily D member 11) | no change with or without drug | -0.67 | -0.51 |
| 9230109A22Rik (RIKEN cDNA 9230109A22 gene) | no change with or without drug | 1.12 | -0.17 |
| Mdh2 (malate dehydrogenase 2, NAD (mitochondrial)) | no change with or without drug | 1.69 | 0.84 |
| Pcdhgc5 (protocadherin gamma subfamily C, 5) | no change with or without drug | -1.91 | -0.51 |
| Ino80c (INO80 complex subunit C) | no change with or without drug | 0 | -1.85 |
| Klra10 (killer cell lectin-like receptor subfamily A, member 10) | high cell count without drug only | 0.9 | 2.87 |
| Atf7ip (activating transcription factor 7 interacting protein) | no change with or without drug | -0.45 | 0 |
| Skap2 (src family associated phosphoprotein 2) | high cell count without drug only | 1.57 | 2.7 |
| Insm1 (insulinoma-associated 1) | no change with or without drug | 0.9 | 0.34 |
| Lrp12 (low density lipoprotein-related protein 12) | no change with or without drug | 0.34 | -1.18 |
| Armc10 (armadillo repeat containing 10) | no change with or without drug | 0.67 | -0.51 |
| Vmn1r67 (vomeronasal 1 receptor 67) | no change with or without drug | -1.01 | -0.51 |
